Assay results as given in the supplement of paper PMC10849652.
This is one part of the list.

Sequences of proteins named here, by UniProt entry; tags and fusion partners are left off. A change or cut given only in a name is not applied to a line headed by its entry.
UniProt Q2NKX8: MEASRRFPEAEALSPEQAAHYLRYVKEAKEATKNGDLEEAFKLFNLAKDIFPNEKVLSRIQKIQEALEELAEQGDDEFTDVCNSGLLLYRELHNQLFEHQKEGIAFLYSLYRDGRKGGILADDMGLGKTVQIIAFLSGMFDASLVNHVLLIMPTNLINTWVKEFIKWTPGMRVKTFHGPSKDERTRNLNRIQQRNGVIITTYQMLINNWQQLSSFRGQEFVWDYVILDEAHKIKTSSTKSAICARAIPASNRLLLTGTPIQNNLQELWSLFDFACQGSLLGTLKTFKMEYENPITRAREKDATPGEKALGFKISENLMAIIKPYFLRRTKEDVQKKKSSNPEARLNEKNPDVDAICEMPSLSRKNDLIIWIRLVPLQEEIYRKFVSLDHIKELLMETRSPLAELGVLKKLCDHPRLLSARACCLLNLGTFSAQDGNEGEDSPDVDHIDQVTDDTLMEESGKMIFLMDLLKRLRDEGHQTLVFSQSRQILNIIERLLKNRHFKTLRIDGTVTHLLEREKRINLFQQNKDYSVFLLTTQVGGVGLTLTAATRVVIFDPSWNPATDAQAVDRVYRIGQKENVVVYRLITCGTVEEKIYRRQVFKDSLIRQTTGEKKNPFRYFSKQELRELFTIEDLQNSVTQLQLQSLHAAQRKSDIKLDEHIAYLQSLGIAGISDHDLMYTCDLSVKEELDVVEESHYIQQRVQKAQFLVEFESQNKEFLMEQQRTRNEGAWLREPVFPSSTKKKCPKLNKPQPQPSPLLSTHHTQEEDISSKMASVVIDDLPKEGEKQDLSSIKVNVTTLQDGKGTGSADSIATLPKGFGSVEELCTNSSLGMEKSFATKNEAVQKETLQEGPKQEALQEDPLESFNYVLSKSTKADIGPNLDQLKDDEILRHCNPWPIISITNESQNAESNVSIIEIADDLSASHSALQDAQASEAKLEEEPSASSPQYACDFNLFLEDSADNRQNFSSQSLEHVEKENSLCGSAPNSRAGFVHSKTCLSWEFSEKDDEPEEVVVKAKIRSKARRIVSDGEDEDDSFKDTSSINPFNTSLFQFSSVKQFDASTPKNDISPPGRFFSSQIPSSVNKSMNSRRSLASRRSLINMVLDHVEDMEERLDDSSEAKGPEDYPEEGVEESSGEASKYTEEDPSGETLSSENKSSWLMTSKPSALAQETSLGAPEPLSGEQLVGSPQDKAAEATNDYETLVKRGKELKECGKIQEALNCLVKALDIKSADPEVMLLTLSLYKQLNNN
UniProt P07992: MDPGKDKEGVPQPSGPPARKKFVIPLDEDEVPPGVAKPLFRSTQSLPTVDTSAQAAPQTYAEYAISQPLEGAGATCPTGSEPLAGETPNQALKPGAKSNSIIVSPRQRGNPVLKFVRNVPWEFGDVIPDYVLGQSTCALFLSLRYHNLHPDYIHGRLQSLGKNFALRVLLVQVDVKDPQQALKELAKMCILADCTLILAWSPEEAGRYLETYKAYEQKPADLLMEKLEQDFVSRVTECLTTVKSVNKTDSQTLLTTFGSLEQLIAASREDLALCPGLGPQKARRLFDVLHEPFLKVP
UniProt Q7L2H7, whole entry, looked up: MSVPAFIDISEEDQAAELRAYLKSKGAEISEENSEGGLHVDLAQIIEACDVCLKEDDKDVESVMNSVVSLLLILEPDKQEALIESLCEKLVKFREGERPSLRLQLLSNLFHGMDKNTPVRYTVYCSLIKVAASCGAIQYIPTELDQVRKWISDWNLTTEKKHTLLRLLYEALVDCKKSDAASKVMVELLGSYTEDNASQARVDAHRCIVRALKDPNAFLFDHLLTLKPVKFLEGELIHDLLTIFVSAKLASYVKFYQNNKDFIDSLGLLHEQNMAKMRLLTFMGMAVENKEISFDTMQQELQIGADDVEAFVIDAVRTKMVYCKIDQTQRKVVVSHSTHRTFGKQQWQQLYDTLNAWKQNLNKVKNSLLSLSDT
UniProt P50548: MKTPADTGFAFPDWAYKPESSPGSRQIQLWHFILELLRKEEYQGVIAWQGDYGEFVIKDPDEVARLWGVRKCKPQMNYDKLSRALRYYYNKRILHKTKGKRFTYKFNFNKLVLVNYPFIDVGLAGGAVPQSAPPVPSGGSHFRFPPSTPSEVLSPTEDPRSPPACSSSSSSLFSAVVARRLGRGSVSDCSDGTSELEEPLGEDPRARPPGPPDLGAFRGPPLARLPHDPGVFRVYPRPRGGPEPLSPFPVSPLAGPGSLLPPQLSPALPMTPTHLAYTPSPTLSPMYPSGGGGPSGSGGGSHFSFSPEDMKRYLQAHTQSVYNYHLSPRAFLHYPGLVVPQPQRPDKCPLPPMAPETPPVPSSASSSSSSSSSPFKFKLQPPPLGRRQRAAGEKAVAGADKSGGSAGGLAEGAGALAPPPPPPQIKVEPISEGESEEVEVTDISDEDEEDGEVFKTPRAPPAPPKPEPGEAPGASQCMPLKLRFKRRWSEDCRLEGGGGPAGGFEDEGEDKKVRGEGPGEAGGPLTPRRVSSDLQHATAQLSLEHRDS
UniProt Q14240, whole entry, looked up: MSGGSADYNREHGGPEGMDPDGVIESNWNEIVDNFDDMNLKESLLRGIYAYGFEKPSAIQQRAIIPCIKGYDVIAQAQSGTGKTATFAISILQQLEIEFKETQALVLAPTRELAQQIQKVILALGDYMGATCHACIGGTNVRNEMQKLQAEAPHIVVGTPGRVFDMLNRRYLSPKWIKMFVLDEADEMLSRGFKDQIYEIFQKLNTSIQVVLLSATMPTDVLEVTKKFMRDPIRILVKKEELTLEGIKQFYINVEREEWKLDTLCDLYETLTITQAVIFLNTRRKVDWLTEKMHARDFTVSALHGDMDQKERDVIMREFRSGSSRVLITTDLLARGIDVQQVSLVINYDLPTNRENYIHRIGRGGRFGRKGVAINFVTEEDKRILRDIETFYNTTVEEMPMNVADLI
UniProt Q13542: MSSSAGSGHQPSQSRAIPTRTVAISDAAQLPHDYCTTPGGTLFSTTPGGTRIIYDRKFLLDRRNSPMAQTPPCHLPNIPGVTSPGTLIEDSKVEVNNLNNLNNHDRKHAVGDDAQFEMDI
UniProt O95208: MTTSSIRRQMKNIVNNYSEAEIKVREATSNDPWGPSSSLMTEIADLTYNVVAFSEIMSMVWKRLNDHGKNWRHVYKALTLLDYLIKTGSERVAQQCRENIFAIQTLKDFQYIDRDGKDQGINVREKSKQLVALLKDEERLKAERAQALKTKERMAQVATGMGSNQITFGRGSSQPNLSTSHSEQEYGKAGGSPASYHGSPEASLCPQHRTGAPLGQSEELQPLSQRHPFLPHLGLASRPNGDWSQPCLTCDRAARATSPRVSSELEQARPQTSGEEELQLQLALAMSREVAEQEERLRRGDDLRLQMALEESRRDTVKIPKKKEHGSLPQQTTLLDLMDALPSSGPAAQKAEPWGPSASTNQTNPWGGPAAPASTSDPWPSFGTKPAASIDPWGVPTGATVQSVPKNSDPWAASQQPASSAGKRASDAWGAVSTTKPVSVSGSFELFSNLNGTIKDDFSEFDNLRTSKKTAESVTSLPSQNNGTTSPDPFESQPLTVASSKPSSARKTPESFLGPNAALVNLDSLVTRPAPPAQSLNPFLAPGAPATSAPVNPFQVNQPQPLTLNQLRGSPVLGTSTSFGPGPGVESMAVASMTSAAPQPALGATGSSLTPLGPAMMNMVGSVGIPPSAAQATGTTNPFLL
UniProt Q96RQ1: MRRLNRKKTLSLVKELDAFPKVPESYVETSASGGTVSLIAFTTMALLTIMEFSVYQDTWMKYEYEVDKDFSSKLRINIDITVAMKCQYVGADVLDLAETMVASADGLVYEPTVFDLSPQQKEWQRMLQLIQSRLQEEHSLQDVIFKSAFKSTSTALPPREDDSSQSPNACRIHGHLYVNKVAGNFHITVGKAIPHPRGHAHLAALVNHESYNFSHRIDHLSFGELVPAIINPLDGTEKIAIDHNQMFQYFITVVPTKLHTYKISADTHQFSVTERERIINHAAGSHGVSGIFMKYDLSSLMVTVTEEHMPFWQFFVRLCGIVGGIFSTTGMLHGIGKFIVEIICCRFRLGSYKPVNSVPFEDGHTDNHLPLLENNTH
UniProt O43414: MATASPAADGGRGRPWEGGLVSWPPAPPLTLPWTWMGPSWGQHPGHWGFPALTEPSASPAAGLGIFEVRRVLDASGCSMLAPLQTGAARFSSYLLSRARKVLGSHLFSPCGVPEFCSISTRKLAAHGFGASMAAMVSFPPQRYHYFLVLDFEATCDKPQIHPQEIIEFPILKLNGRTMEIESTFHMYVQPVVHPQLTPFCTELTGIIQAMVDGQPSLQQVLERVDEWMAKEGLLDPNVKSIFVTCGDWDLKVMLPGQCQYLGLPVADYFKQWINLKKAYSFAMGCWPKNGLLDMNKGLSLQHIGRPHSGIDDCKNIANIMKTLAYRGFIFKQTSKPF
UniProt Q96JJ3: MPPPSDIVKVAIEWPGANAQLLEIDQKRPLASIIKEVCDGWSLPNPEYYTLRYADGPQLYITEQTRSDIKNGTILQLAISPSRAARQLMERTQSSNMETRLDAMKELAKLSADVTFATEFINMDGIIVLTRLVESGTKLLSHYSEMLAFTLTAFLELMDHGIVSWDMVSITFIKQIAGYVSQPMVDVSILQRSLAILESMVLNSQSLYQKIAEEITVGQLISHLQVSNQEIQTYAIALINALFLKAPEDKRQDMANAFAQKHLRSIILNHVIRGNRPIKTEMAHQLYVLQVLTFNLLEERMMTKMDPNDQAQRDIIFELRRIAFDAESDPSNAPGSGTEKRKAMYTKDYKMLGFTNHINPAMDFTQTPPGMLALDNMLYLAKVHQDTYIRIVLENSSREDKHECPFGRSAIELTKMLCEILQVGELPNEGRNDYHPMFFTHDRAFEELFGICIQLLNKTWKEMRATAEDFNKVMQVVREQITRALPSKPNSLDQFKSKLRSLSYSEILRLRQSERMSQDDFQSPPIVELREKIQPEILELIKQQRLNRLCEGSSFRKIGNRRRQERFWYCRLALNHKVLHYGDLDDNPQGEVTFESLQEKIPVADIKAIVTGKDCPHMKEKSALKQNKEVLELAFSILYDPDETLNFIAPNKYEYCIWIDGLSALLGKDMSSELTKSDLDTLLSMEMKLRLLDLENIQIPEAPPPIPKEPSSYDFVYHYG
UniProt O00303, whole entry, looked up: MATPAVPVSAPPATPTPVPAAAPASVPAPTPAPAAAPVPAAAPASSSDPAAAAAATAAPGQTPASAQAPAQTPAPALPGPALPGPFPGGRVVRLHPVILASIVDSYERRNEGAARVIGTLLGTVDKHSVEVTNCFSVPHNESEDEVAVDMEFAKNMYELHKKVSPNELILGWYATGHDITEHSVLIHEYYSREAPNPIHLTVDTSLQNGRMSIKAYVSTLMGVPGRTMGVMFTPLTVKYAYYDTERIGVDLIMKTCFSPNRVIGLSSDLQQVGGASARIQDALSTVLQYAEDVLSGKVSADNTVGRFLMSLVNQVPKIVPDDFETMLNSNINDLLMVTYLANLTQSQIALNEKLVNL
UniProt Q6P179: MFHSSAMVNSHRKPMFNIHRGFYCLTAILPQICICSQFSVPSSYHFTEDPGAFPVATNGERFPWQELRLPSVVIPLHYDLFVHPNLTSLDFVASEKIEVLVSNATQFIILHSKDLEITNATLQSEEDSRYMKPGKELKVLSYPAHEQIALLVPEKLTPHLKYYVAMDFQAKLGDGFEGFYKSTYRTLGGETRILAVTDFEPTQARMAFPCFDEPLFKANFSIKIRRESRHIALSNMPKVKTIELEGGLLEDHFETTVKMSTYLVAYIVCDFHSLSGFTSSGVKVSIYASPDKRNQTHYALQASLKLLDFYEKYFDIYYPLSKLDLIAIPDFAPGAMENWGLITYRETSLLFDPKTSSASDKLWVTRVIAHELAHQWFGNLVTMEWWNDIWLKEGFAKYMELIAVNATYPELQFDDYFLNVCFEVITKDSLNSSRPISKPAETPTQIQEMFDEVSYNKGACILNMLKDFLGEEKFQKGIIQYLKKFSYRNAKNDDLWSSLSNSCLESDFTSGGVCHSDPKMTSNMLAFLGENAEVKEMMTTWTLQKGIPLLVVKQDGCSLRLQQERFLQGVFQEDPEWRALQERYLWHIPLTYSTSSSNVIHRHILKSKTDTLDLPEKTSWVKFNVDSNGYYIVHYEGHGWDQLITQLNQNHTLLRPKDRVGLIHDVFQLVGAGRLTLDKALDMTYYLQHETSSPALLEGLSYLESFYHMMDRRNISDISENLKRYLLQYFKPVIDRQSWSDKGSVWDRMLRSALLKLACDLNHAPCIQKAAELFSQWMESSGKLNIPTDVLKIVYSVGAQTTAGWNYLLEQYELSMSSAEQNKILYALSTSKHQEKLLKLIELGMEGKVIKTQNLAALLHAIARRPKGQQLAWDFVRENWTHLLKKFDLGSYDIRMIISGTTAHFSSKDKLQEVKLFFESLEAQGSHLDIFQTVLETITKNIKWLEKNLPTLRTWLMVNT

Experiments:
Experiment in all cases: log2 fold change, soluble protein after heating vs DMSO (PISA); higher = thermal stabilisation; K562 lysate, 10 uM; active = over 0.2 and 3.5 SD of the protein, either way, in both replicates (recomputed)
erlotinib = compound: C#Cc1cccc(Nc2ncnc3cc(OCCOC)c(OCCOC)cc23)c1 [erlotinib]
Method in brief: (§1)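 K562 pellets were dounce-homogenised in PBS pH 7.4 with 1 mM MgCl2, and the crude extract at 1 mg/mL protein was treated with 10 μM compound for 30 min. Aliquots were heated for 3 min across 48°C-58°C, pooled, and brought to 0.5% NP-40 at 4°C; soluble protein was the supernatant after 21,000xg for 90 min. Soluble protein was quantified by TMTpro 16plex LC-MS/MS with channel sums equalised, and reported as log2 fold change in thermal stability against DMSO controls, with values from duplicates.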

[1] = compound: C/C(=N\NC(=O)C1=CC(=CC=C1)S(=O)(=O)N2CCOCC2)/C3=C(C=CC(=C3)Cl)O
Method in brief: as §1

[2] = compound: C1=CC(=CC=C1C2=NC3=C(N2)C=C(C=C3)C(=O)N)OC4=CC=C(C=C4)Cl
Method in brief: as §1

[3] = compound: C1=CC2=C(C=CC(=C2)/C=C\3/C(=O)NC(=NCC4=CC=CS4)S3)N=C1
Method in brief: as §1

[4] = compound: C1=CC2=NC=CN=C2C=C1/C=C/3\C(=O)NC(=O)S3
Method in brief: as §1

[5] = compound: C1=CC=C(C=C1)C2=NC(=C(N2)C3=CC=NC=C3)C4=CC(=C(C=C4)Cl)O
Method in brief: as §1

[6] = compound: C1=CC=C2C(=C1)C3=NNC4=CC=CC(=C43)C2=O
Method in brief: as §1

[7] = compound: C1CCN(C1)C(=O)NC2=CC=CC(=C2)NC3=NC=C(C(=N3)NCCC4=CN=CN4)Br
Method in brief: as §1

[8] = compound: C1CN(CCC1(CC2=CC=C(C=C2)Cl)N)C3=NC=NC4=C3C=CN4
Method in brief: as §1

IRAK-1-4 Inhibitor I = compound: C1COCCN1CCN2C3=CC=CC=C3N=C2NC(=O)C4=CC(=CC=C4)[N+](=O)[O-] [IRAK-1-4 Inhibitor I]
Method in brief: as §1

ibrutinib = compound: C=CC(=O)N1CCC[C@@H](n2nc(-c3ccc(Oc4ccccc4)cc3)c3c(N)ncnc32)C1 [ibrutinib]
Method in brief: as §1

[9] = compound: CC(=O)c1cnc2ccc(-c3cc(Cl)c(O)c(Cl)c3)nc2c1N[C@H]1CC[C@H](CN(C)C)CC1
Method in brief: as §1

ralimetinib = compound: CC(C)(C)Cn1c(N)nc2ccc(-c3[nH]c(C(C)(C)C)nc3-c3ccc(F)cc3)nc21 [ralimetinib]
Method in brief: as §1

[10] = compound: CC(C)(O)CC(=O)NCCn1ccc2ncnc(Nc3ccc(Oc4cccc(C(F)(F)F)c4)c(Cl)c3)c21
Method in brief: as §1

[11] = compound: CC(C)C1=C2N=C(C=C(N2N=C1)NCC3=CC=CC=C3)NCCCCCCN
Method in brief: as §1

[12] = compound: CC1=C(C(CC(=O)N1)C2=CC=C(C=C2)C(F)(F)F)C(=O)NC3=C(C=C4C(=C3)C=NN4)F
Method in brief: as §1

[13] = compound: CC1=C(C2=C(C=C1)C(=O)C3=CC=CC=C3N2CCCN)C
Method in brief: as §1

[14] = compound: CC1=C(C=C(C=C1)NC(=O)C2=CC(=CC=C2)C(C)(C)C#N)NC3=CC4=C(C=C3)N=CN(C4=O)C
Method in brief: as §1

[15] = compound: CC1=C(C=C(C=C1)NC(=O)C2=CC(=CC=C2)N(C)C)NC(=O)C3=CC=C(C=C3)O
Method in brief: as §1

[16] = compound: CC1=CC=C(C=C1)SC2=C3C=C(SC3=CN=C2)C(=O)N
Method in brief: as §1

Measured: log2 fold change

ERCC6L (UniProt Q2NKX8)
inactive: erlotinib 0.01 | [1] -0.098 | [2] 0 | [3] 0.016 | [4] -0.017 | [5] -0.009 | [6] -0.018 | [7] 0.015 | [8] -0.009 | IRAK-1-4 Inhibitor I -0.021 | ibrutinib -0.011 | [9] -0.038 | ralimetinib 0.006 | [10] 0.008 | [11] 0.001 | [12] -0.004 | [13] 0 | [14] -0.014 | [15] 0.02 | [16] -0.005

ERCC1 (UniProt P07992)
inactive: erlotinib 0.043 | [1] -0.155 | [2] -0.02 | [3] -0.087 | [4] 0.009 | [5] -0.031 | [6] -0.126 | [7] 0.06 | [8] 0.01 | IRAK-1-4 Inhibitor I 0.013 | ibrutinib -0.012 | [9] 0.039 | ralimetinib 0.013 | [10] -0.007 | [11] 0.006 | [12] 0.008 | [13] 0.012 | [14] -0.04 | [15] 0.001 | [16] 0.002

ELOVL7 (UniProt A1L3X0)
inactive: erlotinib -0.08 | [2] -0.266 | [4] 0.09 | [5] -0.1 | IRAK-1-4 Inhibitor I 0.131 | ibrutinib 0.028 | [9] 0.045 | ralimetinib 0.06 | [10] -0.064 | [11] -0.187 | [12] 0.119 | [13] -0.038 | [15] 0.024 | [16] 0

EIF3M (UniProt Q7L2H7)
inactive: erlotinib 0.023 | [1] -0.056 | [2] -0.008 | [3] 0.016 | [4] -0.007 | [5] 0 | [6] 0.025 | [7] -0.021 | [8] 0.003 | IRAK-1-4 Inhibitor I 0.011 | ibrutinib -0.001 | [9] 0.012 | ralimetinib -0.003 | [10] 0.003 | [11] 0.012 | [12] 0.014 | [13] 0.019 | [14] -0.006 | [15] 0 | [16] 0.001

ERF (UniProt P50548)
inactive: erlotinib 0.109 | [1] -0.192 | [2] 0.053 | [3] -0.131 | [5] -0.064 | [6] -0.004 | IRAK-1-4 Inhibitor I -0.023 | ralimetinib -0.054 | [10] -0.092 | [11] 0.218 | [12] -0.124 | [13] 0.029 | [14] -0.035 | [15] 0.025

EIF4A2 isoform 2 (UniProt Q14240)
inactive: erlotinib -0.007 | [1] 0.027 | [2] -0.037 | [3] -0.006 | [4] 0.02 | [5] -0.008 | [6] 0.004 | [7] 0.006 | [8] -0.007 | IRAK-1-4 Inhibitor I -0.018 | ibrutinib 0.019 | [9] 0.02 | ralimetinib 0.015 | [10] 0.016 | [11] -0.033 | [12] -0.007 | [13] 0.016 | [14] -0.017 | [15] -0.025 | [16] 0.02

EIF3B (UniProt C9JQN7)
inactive: erlotinib -0.121 | [2] 0.133 | [4] -0.055 | [5] -0.011 | IRAK-1-4 Inhibitor I 0.035 | ibrutinib 0.05 | [9] -0.011 | ralimetinib -0.07 | [10] -0.095 | [11] 0.069 | [12] -0.037 | [14] -0.052 | [15] 0.053 | [16] -0.116

EIF4EBP2 (UniProt Q13542)
inactive: erlotinib 0.103 | [1] 0.087 | [2] -0.042 | [3] 0.036 | [4] -0.158 | [5] -0.064 | [6] 0.011 | [7] -0.083 | [8] 0.072 | IRAK-1-4 Inhibitor I -0.034 | ibrutinib -0.037 | [9] -0.007 | ralimetinib -0.038 | [10] 0.046 | [11] -0.037 | [12] -0.049 | [13] 0.063 | [14] -0.031 | [15] 0.169 | [16] 0.03

Quoted from the results shown (2 entries):
ERF (UniProt P50548)
inactive: erlotinib 0.109 | [1] -0.192 | [2] 0.053 | [3] -0.131 | [5] -0.064 | [6] -0.004 | IRAK-1-4 Inhibitor I -0.023 | ralimetinib -0.054 | [10] -0.092 | [11] 0.218 | [12] -0.124 | [13] 0.029 | [14] -0.035 | [15] 0.025

EIF4A2 isoform 2 (UniProt Q14240)
inactive: erlotinib -0.007 | [1] 0.027 | [2] -0.037 | [3] -0.006 | [4] 0.02 | [5] -0.008 | [6] 0.004 | [7] 0.006 | [8] -0.007 | IRAK-1-4 Inhibitor I -0.018 | ibrutinib 0.019 | [9] 0.02 | ralimetinib 0.015 | [10] 0.016 | [11] -0.033 | [12] -0.007 | [13] 0.016 | [14] -0.017 | [15] -0.025 | [16] 0.02

Next records follow.

EPN2 (UniProt O95208)
inactive: erlotinib 0.054 | [1] -0.08 | [2] -0.001 | [3] -0.011 | [4] -0.059 | [5] -0.039 | [6] 0.003 | [7] -0.003 | [8] 0.007 | IRAK-1-4 Inhibitor I -0.005 | ibrutinib -0.01 | [9] -0.016 | ralimetinib 0.075 | [10] -0.004 | [11] -0.058 | [12] 0.009 | [13] -0.024 | [14] 0.001 | [15] 0.017 | [16] -0.009

ELAVL4 (UniProt P26378)
inactive: erlotinib 0.073 | [1] 0.047 | [2] -0.063 | [3] -0.047 | [5] 0.015 | [6] 0.002 | [7] 0.029 | [8] 0.036 | IRAK-1-4 Inhibitor I -0.012 | [9] -0.04 | ralimetinib 0.065 | [10] 0.064 | [11] 0.026 | [12] -0.061 | [13] -0.01 | [14] -0.005 | [15] -0.026 | [16] 0.073

EPG5 (UniProt Q9HCE0)
inactive: erlotinib -0.214 | [2] -0.087 | [4] 0 | [5] 0.009 | [7] 0.015 | [8] 0.056 | IRAK-1-4 Inhibitor I 0.062 | ibrutinib -0.049 | [9] 0.024 | ralimetinib -0.087 | [10] 0.005 | [11] -0.056 | [12] -0.152 | [13] -0.078 | [14] 0.027 | [15] 0.012 | [16] -0.072

EIF4E3 (UniProt Q8N5X7)
inactive: erlotinib 0.101 | [1] 0.175 | [2] -0.194 | [3] -0.08 | [6] 0.054 | [7] -0.087 | [8] -0.095 | [11] 0.121 | [12] -0.272 | [14] -0.044

ERGIC2 (UniProt Q96RQ1)
inactive: erlotinib 0.052 | [1] -0.082 | [2] -0.135 | [3] 0.031 | [4] -0.017 | [5] 0.019 | [6] -0.007 | [7] 0.046 | [8] 0.03 | IRAK-1-4 Inhibitor I 0.02 | ibrutinib 0.046 | [9] 0.043 | ralimetinib 0 | [10] -0.086 | [11] -0.041 | [12] -0.055 | [13] 0 | [14] 0.014 | [15] 0.086 | [16] 0.058

ERI3 (UniProt O43414)
inactive: erlotinib 0.017 | [1] 0.059 | [2] 0.017 | [3] -0.037 | [4] -0.03 | [5] 0.021 | [6] -0.017 | [7] -0.024 | [8] 0.046 | IRAK-1-4 Inhibitor I -0.004 | ibrutinib -0.029 | [9] -0.033 | ralimetinib -0.033 | [10] -0.022 | [11] -0.024 | [12] -0.025 | [13] -0.009 | [14] 0.01 | [15] -0.006 | [16] 0.003

ELMO2 (UniProt Q96JJ3)
inactive: erlotinib -0.002 | [1] 0.053 | [2] -0.069 | [3] -0.03 | [5] 0.007 | [6] -0.33 | IRAK-1-4 Inhibitor I -0.114 | [9] 0.077 | ralimetinib 0.003 | [10] -0.028 | [11] 0.01 | [12] 0.025 | [13] -0.087 | [14] 0.243 | [15] 0.085 | [16] -0.11

EIF3F (UniProt O00303)
inactive: erlotinib 0.032 | [1] -0.023 | [2] -0.011 | [3] 0.018 | [4] -0.017 | [5] 0.008 | [6] -0.02 | [7] -0.021 | [8] -0.005 | IRAK-1-4 Inhibitor I -0.009 | ibrutinib -0.028 | [9] -0.016 | ralimetinib 0.009 | [10] 0.007 | [11] 0.012 | [12] -0.044 | [13] -0.007 | [14] -0.055 | [15] 0.014 | [16] 0.002

ERAP2 (UniProt Q6P179)
inactive: erlotinib -0.076 | [2] 0.054 | [4] -0.177 | [5] -0.015 | [7] 0 | [8] -0.029 | IRAK-1-4 Inhibitor I 0.056 | ibrutinib 0.162 | [9] 0.002 | ralimetinib -0.006 | [10] -0.111 | [11] 0.046 | [14] 0.079 | [15] 0 | [16] 0.035
